These are yes or no findings as the source states them, for the method shown. In cells and extracts the contact can be indirect.
Molecular target: CFP-WASp (Wiskott–Aldrich Syndrome protein) (human) (UniProt P42768)
Test: FRET or BRET; Jurkat cells expressing CFP-WASp and YFP-WIP, incubated with 40 μM SMC #13, stimulated 2 min on anti-CD3-coated coverslips, fixed; donor-sensitized acceptor emission, confocal microscopy

Chains of the proteins cited; added tags and fusions are not shown.
UniProt P42768: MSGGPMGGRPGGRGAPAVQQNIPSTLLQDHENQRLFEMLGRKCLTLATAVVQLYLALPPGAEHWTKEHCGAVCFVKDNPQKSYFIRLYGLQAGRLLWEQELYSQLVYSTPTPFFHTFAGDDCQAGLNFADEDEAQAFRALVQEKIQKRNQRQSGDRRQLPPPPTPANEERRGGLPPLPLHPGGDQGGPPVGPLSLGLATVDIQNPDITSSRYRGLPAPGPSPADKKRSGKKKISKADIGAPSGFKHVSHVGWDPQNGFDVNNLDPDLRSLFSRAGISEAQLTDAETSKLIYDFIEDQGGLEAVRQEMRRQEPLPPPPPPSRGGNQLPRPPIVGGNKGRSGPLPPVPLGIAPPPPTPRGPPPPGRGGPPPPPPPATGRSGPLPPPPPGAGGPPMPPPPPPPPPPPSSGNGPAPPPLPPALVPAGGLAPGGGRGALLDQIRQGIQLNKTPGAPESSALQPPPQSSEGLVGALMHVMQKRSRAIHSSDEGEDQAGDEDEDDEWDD
UniProt O43516: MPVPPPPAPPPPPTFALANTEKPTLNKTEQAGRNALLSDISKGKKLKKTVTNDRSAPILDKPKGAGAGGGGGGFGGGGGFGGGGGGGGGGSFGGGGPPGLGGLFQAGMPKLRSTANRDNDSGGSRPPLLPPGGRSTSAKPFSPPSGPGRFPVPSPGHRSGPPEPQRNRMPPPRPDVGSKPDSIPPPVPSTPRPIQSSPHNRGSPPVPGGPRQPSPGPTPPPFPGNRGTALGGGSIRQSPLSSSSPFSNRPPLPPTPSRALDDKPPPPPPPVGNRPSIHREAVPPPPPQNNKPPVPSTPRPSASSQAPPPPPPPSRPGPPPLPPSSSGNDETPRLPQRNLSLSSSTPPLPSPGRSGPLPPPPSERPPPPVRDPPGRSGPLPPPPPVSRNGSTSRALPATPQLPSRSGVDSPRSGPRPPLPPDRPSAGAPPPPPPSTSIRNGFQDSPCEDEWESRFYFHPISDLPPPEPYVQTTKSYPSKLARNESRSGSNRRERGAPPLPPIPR

Question: How did the binding turn out when “YFP-WIP (WASp-interacting protein) (from UniProt O43516 1-503)” was run?
Answer: no binding (condition: cells incubated with 40 μM SMC #13)
